This is one part of the list.
Tests used:
Assay in all cases: log2 fold change, soluble protein after heating vs DMSO (PISA); higher = thermal stabilisation; K562 lysate, 10 uM; active = over 0.2 and 3.5 SD of the protein, either way, in both replicates (recomputed)
erlotinib = compound: C#Cc1cccc(Nc2ncnc3cc(OCCOC)c(OCCOC)cc23)c1 [erlotinib]
Summary of the method: (§1)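 Thermal stability, expressed as log-two fold change relative to solvent controls, is given from duplicates. Crude K562 extract in PBS pH 7.4 with 1 mM MgCl2, at 1 mg/mL protein, was treated with 10 μM compound for 30 min and heated in aliquots for 3 min across 48°C-58°C. After pooling, adjustment to 0.5% NP-40 at 4°C and centrifugation at 21,000xg for 90 min, supernatant protein was measured by TMTpro 16plex LC-MS/MS with channel sums equalised.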

Sequences of proteins named here, by UniProt entry; tags and fusion partners are left off. A change or cut given only in a name is not applied to a line headed by its entry.
UniProt Q99666, whole entry, looked up: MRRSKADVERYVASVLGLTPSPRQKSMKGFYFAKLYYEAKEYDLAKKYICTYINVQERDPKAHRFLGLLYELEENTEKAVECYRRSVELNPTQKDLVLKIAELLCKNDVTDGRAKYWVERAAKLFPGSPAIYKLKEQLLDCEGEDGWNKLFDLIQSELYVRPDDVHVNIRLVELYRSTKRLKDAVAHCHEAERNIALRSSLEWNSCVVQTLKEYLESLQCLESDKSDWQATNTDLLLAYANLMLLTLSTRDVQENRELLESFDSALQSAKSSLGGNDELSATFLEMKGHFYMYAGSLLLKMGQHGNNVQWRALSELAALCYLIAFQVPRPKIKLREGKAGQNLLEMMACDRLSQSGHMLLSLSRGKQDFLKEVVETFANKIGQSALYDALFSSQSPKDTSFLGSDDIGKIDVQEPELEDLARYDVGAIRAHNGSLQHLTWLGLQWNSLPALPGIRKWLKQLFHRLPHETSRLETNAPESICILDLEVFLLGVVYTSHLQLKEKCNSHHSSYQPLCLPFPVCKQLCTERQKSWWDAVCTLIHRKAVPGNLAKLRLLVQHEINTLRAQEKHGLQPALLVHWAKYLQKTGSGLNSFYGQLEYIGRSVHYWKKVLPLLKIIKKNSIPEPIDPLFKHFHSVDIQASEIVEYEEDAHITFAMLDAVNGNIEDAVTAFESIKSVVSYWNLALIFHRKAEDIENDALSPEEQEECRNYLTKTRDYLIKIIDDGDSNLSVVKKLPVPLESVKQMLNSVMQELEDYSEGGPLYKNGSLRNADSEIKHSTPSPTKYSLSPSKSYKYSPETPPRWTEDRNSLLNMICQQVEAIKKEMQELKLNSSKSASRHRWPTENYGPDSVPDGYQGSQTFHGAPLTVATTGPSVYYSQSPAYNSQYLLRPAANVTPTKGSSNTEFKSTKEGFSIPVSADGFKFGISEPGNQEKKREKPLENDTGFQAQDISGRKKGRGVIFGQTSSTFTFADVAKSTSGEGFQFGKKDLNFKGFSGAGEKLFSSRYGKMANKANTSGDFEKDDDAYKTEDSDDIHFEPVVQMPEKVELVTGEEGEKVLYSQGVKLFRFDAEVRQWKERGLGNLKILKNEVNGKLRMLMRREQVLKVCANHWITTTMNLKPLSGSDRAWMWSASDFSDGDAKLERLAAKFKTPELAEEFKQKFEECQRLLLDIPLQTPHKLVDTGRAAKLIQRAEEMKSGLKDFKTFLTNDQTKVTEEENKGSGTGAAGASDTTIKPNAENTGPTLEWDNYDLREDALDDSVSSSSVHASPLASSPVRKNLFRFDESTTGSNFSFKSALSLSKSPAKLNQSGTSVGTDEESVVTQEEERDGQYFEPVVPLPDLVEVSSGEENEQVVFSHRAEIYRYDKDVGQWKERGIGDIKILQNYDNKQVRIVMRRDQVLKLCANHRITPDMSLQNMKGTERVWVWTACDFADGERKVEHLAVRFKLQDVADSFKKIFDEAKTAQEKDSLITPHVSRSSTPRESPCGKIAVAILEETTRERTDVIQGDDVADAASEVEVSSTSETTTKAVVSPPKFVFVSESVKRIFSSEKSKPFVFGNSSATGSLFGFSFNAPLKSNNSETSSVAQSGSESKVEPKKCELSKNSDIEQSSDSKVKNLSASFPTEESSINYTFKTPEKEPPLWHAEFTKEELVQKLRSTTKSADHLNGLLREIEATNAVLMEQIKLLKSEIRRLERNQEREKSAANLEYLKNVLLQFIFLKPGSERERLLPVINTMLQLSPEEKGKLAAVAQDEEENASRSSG
UniProt Q9NW13: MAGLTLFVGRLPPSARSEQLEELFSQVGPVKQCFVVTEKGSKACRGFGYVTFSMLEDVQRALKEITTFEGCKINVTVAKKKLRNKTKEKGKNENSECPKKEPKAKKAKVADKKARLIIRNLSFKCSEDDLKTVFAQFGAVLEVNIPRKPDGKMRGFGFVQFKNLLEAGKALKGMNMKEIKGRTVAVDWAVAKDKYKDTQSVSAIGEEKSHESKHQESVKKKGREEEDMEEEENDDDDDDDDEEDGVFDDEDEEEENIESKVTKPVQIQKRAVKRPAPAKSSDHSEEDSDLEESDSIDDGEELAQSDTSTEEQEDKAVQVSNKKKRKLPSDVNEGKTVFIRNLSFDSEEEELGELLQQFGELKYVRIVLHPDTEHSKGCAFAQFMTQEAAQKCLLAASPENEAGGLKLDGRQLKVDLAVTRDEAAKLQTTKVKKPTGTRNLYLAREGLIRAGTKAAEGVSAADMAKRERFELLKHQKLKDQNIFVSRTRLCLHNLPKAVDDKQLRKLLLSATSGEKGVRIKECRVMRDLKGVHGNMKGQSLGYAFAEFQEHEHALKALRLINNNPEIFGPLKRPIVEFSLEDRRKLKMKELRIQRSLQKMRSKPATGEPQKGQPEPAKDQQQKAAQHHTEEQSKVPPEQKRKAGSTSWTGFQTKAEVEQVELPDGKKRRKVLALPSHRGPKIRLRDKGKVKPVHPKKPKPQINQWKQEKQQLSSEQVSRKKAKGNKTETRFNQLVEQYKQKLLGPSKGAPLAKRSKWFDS
UniProt P49756, whole entry, looked up: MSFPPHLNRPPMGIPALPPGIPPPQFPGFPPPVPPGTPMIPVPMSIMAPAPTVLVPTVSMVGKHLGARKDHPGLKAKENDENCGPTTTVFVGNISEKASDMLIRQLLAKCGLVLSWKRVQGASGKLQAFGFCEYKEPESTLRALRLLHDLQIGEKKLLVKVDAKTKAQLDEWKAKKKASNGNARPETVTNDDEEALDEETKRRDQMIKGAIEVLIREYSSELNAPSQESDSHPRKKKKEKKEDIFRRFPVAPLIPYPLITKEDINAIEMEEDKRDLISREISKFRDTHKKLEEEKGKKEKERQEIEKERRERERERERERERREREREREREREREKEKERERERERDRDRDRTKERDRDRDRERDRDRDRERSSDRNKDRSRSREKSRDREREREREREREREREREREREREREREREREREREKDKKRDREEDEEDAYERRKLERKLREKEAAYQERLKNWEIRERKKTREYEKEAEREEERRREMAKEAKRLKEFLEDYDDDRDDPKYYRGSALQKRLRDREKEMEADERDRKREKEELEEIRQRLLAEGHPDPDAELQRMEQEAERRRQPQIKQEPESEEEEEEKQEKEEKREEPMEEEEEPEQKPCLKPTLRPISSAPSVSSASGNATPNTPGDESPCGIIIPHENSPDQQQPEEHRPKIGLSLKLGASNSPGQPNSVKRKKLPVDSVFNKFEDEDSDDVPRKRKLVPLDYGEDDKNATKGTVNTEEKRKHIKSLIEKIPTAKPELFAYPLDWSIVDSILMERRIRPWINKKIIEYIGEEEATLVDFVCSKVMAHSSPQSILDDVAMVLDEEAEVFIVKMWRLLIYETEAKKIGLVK
UniProt Q9H6H4: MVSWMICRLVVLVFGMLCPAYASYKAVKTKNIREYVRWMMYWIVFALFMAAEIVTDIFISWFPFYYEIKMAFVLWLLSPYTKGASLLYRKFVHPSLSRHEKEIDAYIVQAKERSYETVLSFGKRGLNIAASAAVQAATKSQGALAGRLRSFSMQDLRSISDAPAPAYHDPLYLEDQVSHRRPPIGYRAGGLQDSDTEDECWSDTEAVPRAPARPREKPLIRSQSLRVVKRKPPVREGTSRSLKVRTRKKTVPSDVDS
UniProt O43665: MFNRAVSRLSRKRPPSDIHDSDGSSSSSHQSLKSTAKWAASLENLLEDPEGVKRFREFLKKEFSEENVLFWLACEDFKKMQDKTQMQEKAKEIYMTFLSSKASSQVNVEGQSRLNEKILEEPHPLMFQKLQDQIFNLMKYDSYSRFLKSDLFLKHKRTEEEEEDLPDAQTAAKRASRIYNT
UniProt Q9HBH5: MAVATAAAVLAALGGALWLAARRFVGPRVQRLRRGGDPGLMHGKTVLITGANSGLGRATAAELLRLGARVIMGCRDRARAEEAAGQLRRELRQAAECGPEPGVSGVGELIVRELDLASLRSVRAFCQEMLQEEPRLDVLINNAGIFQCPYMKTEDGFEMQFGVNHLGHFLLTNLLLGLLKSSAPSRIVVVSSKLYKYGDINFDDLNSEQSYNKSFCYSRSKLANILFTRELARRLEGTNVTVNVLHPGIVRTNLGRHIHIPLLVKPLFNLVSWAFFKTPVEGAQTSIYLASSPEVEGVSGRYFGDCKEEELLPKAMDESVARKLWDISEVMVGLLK
UniProt P18754: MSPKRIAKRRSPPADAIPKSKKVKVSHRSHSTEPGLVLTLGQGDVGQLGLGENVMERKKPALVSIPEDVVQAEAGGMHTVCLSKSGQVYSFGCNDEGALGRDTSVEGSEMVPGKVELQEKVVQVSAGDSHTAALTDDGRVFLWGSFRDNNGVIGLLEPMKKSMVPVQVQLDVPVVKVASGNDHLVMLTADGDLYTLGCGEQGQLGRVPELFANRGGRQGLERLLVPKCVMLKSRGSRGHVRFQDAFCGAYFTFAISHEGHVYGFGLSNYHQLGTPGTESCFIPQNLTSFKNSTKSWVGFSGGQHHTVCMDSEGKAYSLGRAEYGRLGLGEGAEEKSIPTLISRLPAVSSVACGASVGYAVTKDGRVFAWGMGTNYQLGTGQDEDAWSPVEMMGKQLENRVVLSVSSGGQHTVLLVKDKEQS
UniProt Q8TAC1: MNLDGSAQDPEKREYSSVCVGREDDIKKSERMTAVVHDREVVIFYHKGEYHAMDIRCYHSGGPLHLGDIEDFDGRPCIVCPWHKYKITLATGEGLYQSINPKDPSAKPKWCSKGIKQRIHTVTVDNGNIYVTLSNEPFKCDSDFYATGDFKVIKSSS
UniProt P06400: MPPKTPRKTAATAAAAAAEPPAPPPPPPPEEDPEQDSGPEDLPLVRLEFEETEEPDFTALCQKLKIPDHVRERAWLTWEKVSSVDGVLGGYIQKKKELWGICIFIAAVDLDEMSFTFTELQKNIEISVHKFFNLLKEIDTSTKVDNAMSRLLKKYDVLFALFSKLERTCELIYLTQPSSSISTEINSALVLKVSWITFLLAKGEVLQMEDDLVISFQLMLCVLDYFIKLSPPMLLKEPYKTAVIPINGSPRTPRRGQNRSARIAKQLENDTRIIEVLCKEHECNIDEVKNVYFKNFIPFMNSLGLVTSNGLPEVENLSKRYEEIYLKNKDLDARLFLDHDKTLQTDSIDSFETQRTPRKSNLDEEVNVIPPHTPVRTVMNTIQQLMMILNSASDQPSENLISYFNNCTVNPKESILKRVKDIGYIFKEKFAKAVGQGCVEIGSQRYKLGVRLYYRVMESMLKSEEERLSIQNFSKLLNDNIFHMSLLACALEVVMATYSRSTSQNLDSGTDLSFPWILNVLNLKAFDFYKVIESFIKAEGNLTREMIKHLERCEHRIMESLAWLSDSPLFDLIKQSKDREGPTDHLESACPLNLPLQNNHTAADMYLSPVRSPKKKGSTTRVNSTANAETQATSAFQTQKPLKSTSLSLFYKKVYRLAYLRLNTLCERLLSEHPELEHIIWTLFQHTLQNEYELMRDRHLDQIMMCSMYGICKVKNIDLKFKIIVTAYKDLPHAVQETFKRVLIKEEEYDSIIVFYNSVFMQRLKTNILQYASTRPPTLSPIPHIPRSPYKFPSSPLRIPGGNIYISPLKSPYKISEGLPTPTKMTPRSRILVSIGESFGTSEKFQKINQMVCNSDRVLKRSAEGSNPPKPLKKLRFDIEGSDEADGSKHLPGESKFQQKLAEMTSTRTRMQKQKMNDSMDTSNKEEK
UniProt P52756, whole entry, looked up: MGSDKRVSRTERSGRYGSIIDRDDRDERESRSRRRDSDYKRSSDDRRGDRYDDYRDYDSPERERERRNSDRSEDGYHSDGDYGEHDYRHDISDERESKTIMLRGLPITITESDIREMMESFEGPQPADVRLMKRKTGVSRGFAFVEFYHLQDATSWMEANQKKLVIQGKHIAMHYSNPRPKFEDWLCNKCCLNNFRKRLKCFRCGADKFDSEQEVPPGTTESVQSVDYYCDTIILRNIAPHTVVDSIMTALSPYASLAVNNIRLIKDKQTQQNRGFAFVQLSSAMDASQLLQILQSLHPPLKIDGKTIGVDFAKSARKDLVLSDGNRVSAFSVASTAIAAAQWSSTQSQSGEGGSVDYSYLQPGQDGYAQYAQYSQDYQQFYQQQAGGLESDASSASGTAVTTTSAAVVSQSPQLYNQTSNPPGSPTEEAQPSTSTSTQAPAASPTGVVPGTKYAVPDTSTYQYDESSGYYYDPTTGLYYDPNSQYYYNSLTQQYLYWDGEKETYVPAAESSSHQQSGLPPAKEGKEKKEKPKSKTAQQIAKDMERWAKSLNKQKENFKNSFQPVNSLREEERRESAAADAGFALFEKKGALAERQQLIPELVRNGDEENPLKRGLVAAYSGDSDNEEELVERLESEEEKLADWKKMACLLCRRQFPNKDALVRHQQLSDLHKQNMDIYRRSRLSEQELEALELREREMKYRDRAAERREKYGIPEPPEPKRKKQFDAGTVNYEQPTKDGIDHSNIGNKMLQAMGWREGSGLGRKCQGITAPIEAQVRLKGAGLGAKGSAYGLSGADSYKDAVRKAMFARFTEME
UniProt P62877, whole entry, looked up: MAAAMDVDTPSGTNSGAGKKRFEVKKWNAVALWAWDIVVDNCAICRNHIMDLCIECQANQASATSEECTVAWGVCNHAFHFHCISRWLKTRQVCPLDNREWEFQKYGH

[1] = compound: C/C(=N\NC(=O)C1=CC(=CC=C1)S(=O)(=O)N2CCOCC2)/C3=C(C=CC(=C3)Cl)O
Summary of the method: as §1

[2] = compound: C1=CC(=CC=C1C2=NC3=C(N2)C=C(C=C3)C(=O)N)OC4=CC=C(C=C4)Cl
Summary of the method: as §1

[3] = compound: C1=CC2=C(C=CC(=C2)/C=C\3/C(=O)NC(=NCC4=CC=CS4)S3)N=C1
Summary of the method: as §1

[4] = compound: C1=CC2=NC=CN=C2C=C1/C=C/3\C(=O)NC(=O)S3
Summary of the method: as §1

[5] = compound: C1=CC=C(C=C1)C2=NC(=C(N2)C3=CC=NC=C3)C4=CC(=C(C=C4)Cl)O
Summary of the method: as §1

[6] = compound: C1=CC=C2C(=C1)C3=NNC4=CC=CC(=C43)C2=O
Summary of the method: as §1

[7] = compound: C1CCN(C1)C(=O)NC2=CC=CC(=C2)NC3=NC=C(C(=N3)NCCC4=CN=CN4)Br
Summary of the method: as §1

[8] = compound: C1CN(CCC1(CC2=CC=C(C=C2)Cl)N)C3=NC=NC4=C3C=CN4
Summary of the method: as §1

IRAK-1-4 Inhibitor I = compound: C1COCCN1CCN2C3=CC=CC=C3N=C2NC(=O)C4=CC(=CC=C4)[N+](=O)[O-] [IRAK-1-4 Inhibitor I]
Summary of the method: as §1

ibrutinib = compound: C=CC(=O)N1CCC[C@@H](n2nc(-c3ccc(Oc4ccccc4)cc3)c3c(N)ncnc32)C1 [ibrutinib]
Summary of the method: as §1

[9] = compound: CC(=O)c1cnc2ccc(-c3cc(Cl)c(O)c(Cl)c3)nc2c1N[C@H]1CC[C@H](CN(C)C)CC1
Summary of the method: as §1

ralimetinib = compound: CC(C)(C)Cn1c(N)nc2ccc(-c3[nH]c(C(C)(C)C)nc3-c3ccc(F)cc3)nc21 [ralimetinib]
Summary of the method: as §1

[10] = compound: CC(C)(O)CC(=O)NCCn1ccc2ncnc(Nc3ccc(Oc4cccc(C(F)(F)F)c4)c(Cl)c3)c21
Summary of the method: as §1

[11] = compound: CC(C)C1=C2N=C(C=C(N2N=C1)NCC3=CC=CC=C3)NCCCCCCN
Summary of the method: as §1

[12] = compound: CC1=C(C(CC(=O)N1)C2=CC=C(C=C2)C(F)(F)F)C(=O)NC3=C(C=C4C(=C3)C=NN4)F
Summary of the method: as §1

[13] = compound: CC1=C(C2=C(C=C1)C(=O)C3=CC=CC=C3N2CCCN)C
Summary of the method: as §1

[14] = compound: CC1=C(C=C(C=C1)NC(=O)C2=CC(=CC=C2)C(C)(C)C#N)NC3=CC4=C(C=C3)N=CN(C4=O)C
Summary of the method: as §1

[15] = compound: CC1=C(C=C(C=C1)NC(=O)C2=CC(=CC=C2)N(C)C)NC(=O)C3=CC=C(C=C3)O
Summary of the method: as §1

[16] = compound: CC1=CC=C(C=C1)SC2=C3C=C(SC3=CN=C2)C(=O)N
Summary of the method: as §1

Measured: log2 fold change

RGPD5 (UniProt Q99666)
inactive: erlotinib -0.084 | [1] 0.181 | [2] -0.057 | [3] -0.035 | [4] 0.02 | [5] 0.009 | [6] 0.036 | [7] -0.091 | [8] 0.063 | IRAK-1-4 Inhibitor I -0.012 | ibrutinib 0.01 | [9] 0.065 | ralimetinib -0.001 | [10] -0.01 | [11] 0.077 | [12] -0.018 | [13] -0.018 | [14] -0.009 | [15] -0.009 | [16] 0.008

RCC2 (UniProt Q9P258)
inactive: erlotinib -0.026 | [1] 0.023 | [2] -0.021 | [3] -0.019 | [4] -0.026 | [5] -0.053 | [6] 0.008 | [7] -0.003 | [8] 0.017 | IRAK-1-4 Inhibitor I 0.005 | ibrutinib -0.04 | [9] 0.011 | ralimetinib 0.014 | [10] 0.016 | [11] 0.006 | [12] -0.014 | [13] 0.006 | [14] -0.003 | [15] 0.01 | [16] 0.027

RBM28 (UniProt Q9NW13)
inactive: erlotinib -0.047 | [1] -0.01 | [2] -0.062 | [3] -0.019 | [4] -0.007 | [5] 0.011 | [6] 0.027 | [7] -0.021 | [8] -0.024 | IRAK-1-4 Inhibitor I -0.032 | ibrutinib 0.007 | [9] -0.003 | ralimetinib 0.019 | [10] -0.013 | [11] 0.011 | [12] -0.024 | [13] -0.031 | [14] -0.023 | [15] 0.043 | [16] -0.003

RFC1 (UniProt P35251)
inactive: erlotinib -0.18 | [1] -0.017 | [2] -0.255 | [3] -0.053 | [4] -0.066 | [5] 0.062 | [6] -0.007 | [7] 0.002 | [8] -0.013 | IRAK-1-4 Inhibitor I -0.048 | ibrutinib 0.144 | [9] 0.002 | ralimetinib 0.082 | [10] -0.012 | [11] 0.055 | [12] 0.005 | [13] -0.021 | [14] 0.067 | [15] 0.021 | [16] 0.024

RBM25 (UniProt P49756)
inactive: erlotinib 0 | [1] -0.023 | [2] 0.1 | [3] -0.006 | [4] -0.036 | [5] -0.064 | [6] -0.045 | [7] -0.027 | [8] 0.024 | IRAK-1-4 Inhibitor I 0.031 | ibrutinib 0.062 | [9] 0.023 | ralimetinib -0.021 | [10] -0.062 | [11] -0.021 | [12] -0.006 | [13] 0.002 | [14] -0.031 | [15] -0.008 | [16] -0.012

REEP4 (UniProt Q9H6H4)
inactive: erlotinib 0.009 | [1] 0.018 | [2] 0.043 | [3] 0.02 | [4] 0.043 | [5] -0.028 | [6] -0.059 | [7] -0.042 | [8] 0.058 | IRAK-1-4 Inhibitor I 0.012 | ibrutinib -0.043 | [9] -0.015 | ralimetinib 0.021 | [10] -0.102 | [11] 0.003 | [12] 0.133 | [13] 0.033 | [14] -0.011 | [15] 0.013 | [16] 0

Quoted at random: 2 records from the list
REEP4 (UniProt Q9H6H4)
inactive: erlotinib 0.009 | [1] 0.018 | [2] 0.043 | [3] 0.02 | [4] 0.043 | [5] -0.028 | [6] -0.059 | [7] -0.042 | [8] 0.058 | IRAK-1-4 Inhibitor I 0.012 | ibrutinib -0.043 | [9] -0.015 | ralimetinib 0.021 | [10] -0.102 | [11] 0.003 | [12] 0.133 | [13] 0.033 | [14] -0.011 | [15] 0.013 | [16] 0

RBM28 (UniProt Q9NW13)
inactive: erlotinib -0.047 | [1] -0.01 | [2] -0.062 | [3] -0.019 | [4] -0.007 | [5] 0.011 | [6] 0.027 | [7] -0.021 | [8] -0.024 | IRAK-1-4 Inhibitor I -0.032 | ibrutinib 0.007 | [9] -0.003 | ralimetinib 0.019 | [10] -0.013 | [11] 0.011 | [12] -0.024 | [13] -0.031 | [14] -0.023 | [15] 0.043 | [16] -0.003

Further results.

RBM14 (UniProt Q96PK6)
inactive: erlotinib 0.005 | [1] 0.114 | [2] 0.013 | [3] -0.003 | [4] 0.06 | [5] -0.08 | [6] -0.056 | [7] 0.003 | [8] -0.051 | IRAK-1-4 Inhibitor I -0.009 | ibrutinib -0.027 | [9] 0.048 | ralimetinib 0.103 | [10] 0.08 | [11] -0.072 | [12] 0.047 | [13] -0.008 | [14] 0.015 | [15] -0.009 | [16] 0.033

RGS10 (UniProt O43665)
inactive: erlotinib 0.006 | [1] -0.013 | [2] 0.026 | [3] -0.006 | [4] 0.002 | [5] 0.002 | [6] 0.057 | [7] -0.007 | [8] -0.003 | IRAK-1-4 Inhibitor I 0.018 | ibrutinib 0.03 | [9] 0.01 | ralimetinib 0.029 | [10] 0.02 | [11] -0.02 | [12] -0.017 | [13] -0.052 | [14] -0.008 | [15] -0.018 | [16] -0.043

RENBP (UniProt P51606)
inactive: erlotinib -0.004 | [1] -0.006 | [2] -0.01 | [3] 0.001 | [4] 0.021 | [5] -0.032 | [6] 0.009 | [7] -0.011 | [8] 0.031 | IRAK-1-4 Inhibitor I 0.002 | ibrutinib -0.039 | [9] -0.032 | ralimetinib -0.012 | [10] -0.008 | [11] 0.002 | [12] 0.021 | [13] -0.042 | [14] 0.023 | [15] -0.007 | [16] 0.014

RDH14 (UniProt Q9HBH5)
inactive: erlotinib -0.019 | [1] 0.021 | [2] -0.056 | [3] -0.049 | [4] 0.037 | [5] 0.021 | [6] 0.024 | [7] 0.036 | [8] -0.057 | IRAK-1-4 Inhibitor I 0.018 | ibrutinib 0.017 | [9] 0.061 | ralimetinib 0.072 | [10] 0.089 | [11] 0.012 | [12] -0.031 | [13] 0.053 | [14] -0.073 | [15] 0.032 | [16] -0.012

RCC1 isoform 2 (UniProt P18754)
inactive: erlotinib 0.016 | [1] 0.005 | [2] -0.033 | [3] 0 | [4] 0.017 | [5] 0.007 | [6] -0.024 | [7] -0.008 | [8] -0.043 | IRAK-1-4 Inhibitor I -0.022 | ibrutinib -0.008 | [9] 0.012 | ralimetinib 0.041 | [10] 0.019 | [11] 0.015 | [12] -0.048 | [13] -0.037 | [14] -0.01 | [15] 0.036 | [16] 0.01

RFESD isoform 2 (UniProt Q8TAC1)
inactive: erlotinib 0.074 | [1] -0.054 | [2] 0.024 | [3] -0.003 | [4] 0.02 | [5] 0.015 | [6] -0.047 | [7] -0.003 | [8] 0.082 | IRAK-1-4 Inhibitor I -0.009 | ibrutinib 0.025 | [9] -0.009 | ralimetinib -0.005 | [10] 0.03 | [11] -0.016 | [12] -0.02 | [13] 0.011 | [14] 0.016 | [15] -0.027 | [16] -0.013

RB1 (UniProt P06400)
inactive: erlotinib -0.043 | [1] 0.051 | [2] -0.013 | [3] -0.015 | [4] -0.015 | [5] 0.006 | [6] -0.026 | [7] -0.012 | [8] 0.012 | IRAK-1-4 Inhibitor I 0.008 | ibrutinib 0.017 | [9] -0.005 | ralimetinib 0.006 | [10] -0.003 | [11] -0.005 | [12] 0.003 | [13] 0.007 | [14] -0.031 | [15] -0.021 | [16] 0.008

RFXAP (UniProt O00287)
inactive: erlotinib -0.008 | [1] 0.003 | [2] 0.025 | [3] 0.054 | [4] 0.003 | [5] 0.002 | [6] 0.039 | [7] 0.031 | [8] 0.02 | IRAK-1-4 Inhibitor I 0.03 | ibrutinib 0.083 | [9] -0.037 | ralimetinib 0.049 | [10] -0.003 | [11] -0.036 | [12] 0.021 | [13] -0.031 | [14] 0.049 | [15] 0.013 | [16] -0.028

RBM5 (UniProt P52756)
inactive: erlotinib 0.095 | [1] -0.042 | [2] 0.054 | [3] 0.006 | [4] -0.006 | [5] 0.015 | [6] -0.121 | [7] -0.021 | [8] -0.001 | IRAK-1-4 Inhibitor I -0.023 | ibrutinib -0.017 | [9] 0.03 | ralimetinib 0.004 | [10] 0.042 | [11] -0.141 | [12] -0.004 | [13] 0.065 | [14] 0.035 | [15] -0.007 | [16] -0.06

RBX1 (UniProt P62877)
inactive: erlotinib -0.11 | [1] 0.301 | [2] 0.007 | [3] 0.036 | [4] 0.216 | [5] 0.03 | [6] 0.122 | [7] -0.008 | [8] 0.197 | IRAK-1-4 Inhibitor I 0.1 | ibrutinib 0.165 | [9] -0.087 | ralimetinib 0.259 | [10] 0.22 | [11] -0.014 | [12] 0.062 | [13] 0.136 | [14] 0.107 | [15] -0.031 | [16] -0.02

Source: the supplement of paper PMC10849652
